Experimental data published in PubChem BioAssay AID1347426 (Functional Genomics Laboratory (NCATS/FGL), 2020).
In all, about 31,000 sequences went through this assay and about 1,400 (4.5%) were called active.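 How the source made its calls: active means median seed-adjusted z-score above 1 or below -1; inactive means the rest.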 The list shows a part of the results.

Assay: Novel Modifiers of Survival Motor Neuron (SMN) Protein: Gene Identification via Genome-wide siRNA Screen;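 further: luminescence tracks full-length SMN protein made from the SMN2 reporter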
Conditions: HEK293T SMN2-luciferase reporter, siRNA knockdown, 72 h; actives lie on both sides
In short: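 Each of three siRNAs per gene is reverse-transfected (1 pmol) into reporter HEK293T cells whose luciferase output tracks SMN protein level. After 72 h culture, ONE-Glo luminescence is control-normalized, log10-transformed and MAD-standardized; Common Seed Analysis deprioritizes seed-driven hits.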

Sequence | median seed-adjusted z-score
CAUCCCAUUUGAUAGAUUUTT against FCAR | inactive: -0.106
CGACAAAGAUUAUCACUUUTT against NPM1 | inactive: 0.141
AAUUCAGAGAGUAAAUCUATT against RBM9 | inactive: 0.895
GAAACAGUACCUCUCCAUUTT against MSX2 | inactive: -0.406
GGAGAAGGAUGGUAUCGUATT against ZKSCAN1 | inactive: 0.229
CAUUGAAUGAUAUACGGUATT against CHN1 | inactive: 2.1e-05
GGAAGAUCCUCAUCAGCGATT against KCNA10 | inactive: 0.00887
CGAUGAACAUGUUAGACAUTT against AZIN1 | active: -1.14
GGUAUGGUGUCUGGACUUATT against NRP1 | inactive: 0.561
GGCAUACAAGGAGUCAGUATT against CSTF2T | inactive: 0.387
GAAUCUUUAUAUCAACGGATT against AKAP10 | inactive: 0.0689
CUUCUACACUGACAUCUAATT against KATNAL1 | inactive: -0.0327
GAUUGAUAGAAGCACCCUATT against DCC | inactive: 0.303
CAUCGAUGCUGCUUAUGCATT against HDC | inactive: -0.0146
CAACUACAAGGAACAGCUATT against OBFC2A | inactive: 0.406
CGGACAUCGCGUACAACCATT against FZD1 | inactive: -0.163
GGGAGAUACCAGUUCAACATT against BTD | inactive: -0.165
CUGGAUGCCUGCUACCUGATT against HIF3A | inactive: -0.0855
GGAUUGAGCUAAAGGCAUUTT against GPR83 | inactive: 0.105
GGACCAGUUUGAGAGUGAATT against CNOT3 | inactive: 0.872
CAGCGAGAUUUAUGACUAUTT against AXL | inactive: -0.603
CGCUGUCAAGACCACCAAATT against LFNG | inactive: -0.13

Sequence | median seed-adjusted z-score
AGAUCCUCCUGCAUAUUGATT against CYP4F2 | inactive: -0.387
GCAGCGGCAUCAAACUCAATT against MKNK2 | inactive: 0.281
CAAACAAGACUGUUGAUGATT against CALB1 | inactive: 0.191
CGUUUCGCAUCUUUCAUCATT against KRT82 | inactive: 0.129
CCUGCACAGUACCAACAGATT against PPA1 | inactive: -0.0865
GAGUAUACUGUGACAUGAATT against FGB | inactive: 0.481
AGAUGAGAACUCUAAGCAATT against CHRM2 | inactive: 0.053
GGAUGACACCGUUCAAUCATT against LRRFIP1 | inactive: -0.181
GGGUAUUGUUUGGACUUUUTT against GPR156 | inactive: 0
CGAGUGUACCGAGUACAGATT against ELP3 | inactive: 0.321
CGAAAUCCAUAGAGAUGAATT against CABC1 | inactive: -0.197
GAAAGACACUGGGACUCGATT against SNRNP35 | inactive: 0.172
CAAUCCUGACUCAAACUAATT against RAG2 | inactive: 0.138
GCCUGUUCGAAAGCGCAAATT against UBR4 | inactive: 0.602
CAAUGUUCCUCUACCUCUATT against MAL2 | inactive: -0.604
GGCUAAGUCAUGAAGAUAUTT against CYP4V2 | inactive: 0
GGCCGUAACCUCAACCGUUTT against SNX33 | inactive: -0.246
GACUUUAGCCCAAUUAAUATT against MYLIP | inactive: 0.652
CUAUGGUAAUGUUUGCUUUTT against ZXDB | inactive: 0.186
ACAUGGACGUGAAAGGGAATT against WFIKKN2 | inactive: -0.353
GACUCUCUGCUGAUCCGAATT against AK2 | inactive: 0.418
AUGCUACUCUAAAACCCAATT against NEUROD4 | inactive: 0.0349

Reformatted: results already given
Sequence	median seed-adjusted z-score
GCAGCGGCAUCAAACUCAATT against MKNK2	inactive: 0.281
CAAACAAGACUGUUGAUGATT against CALB1	inactive: 0.191

Quoted from the listing.
CAAACAAGACUGUUGAUGATT against CALB1 | median seed-adjusted z-score: inactive: 0.191
GACUCUCUGCUGAUCCGAATT against AK2 | median seed-adjusted z-score: inactive: 0.418
GGCUAAGUCAUGAAGAUAUTT against CYP4V2 | median seed-adjusted z-score: inactive: 0
CUAUGGUAAUGUUUGCUUUTT against ZXDB | median seed-adjusted z-score: inactive: 0.186
AGAUGAGAACUCUAAGCAATT against CHRM2 | median seed-adjusted z-score: inactive: 0.053

Further records.

Sequence | median seed-adjusted z-score
GGAGCAGACGGUGACCAAATT against CIB3 | inactive: 0.234
CGGUCCUUCUCAACAACAATT against MAP3K7IP1 | inactive: 0
GCGUAGACCUAGAUCUUUATT against NFE2L3 | inactive: 0.118
GGGAUAUCUUCUAACCAUATT against IDS | inactive: -0.074
AGACGUACCGAGAGGAGUATT against PLA2G2F | inactive: 0.508
GAUUGUUCAGAAUAGCAAUTT against BPTF | inactive: -0.273
CCUCAACAGUGUCUACAUUTT against LYL1 | inactive: -0.118
GCAGCGAAGGAAUAGGACATT against PRRX1 | inactive: -0.172
CACUUUUAGUAUUUCGAAUTT against ZBTB5 | inactive: 0.314
AGAGAUUAUAUGUAUGUAATT against HS3ST3B1 | inactive: 0.937
CCCUCGAUGUGGUCAUGAATT against ZNRD1 | inactive: -0.133
GGUGACAGGUUGAAAGUGATT against PYGB | inactive: -0.292
AGUACUUUGUAUUGGGAUATT against RCE1 | active: -1.19
GGACAUCGAUCUCAGGGAATT against SYN2 | inactive: -0.375
CAAUAUGAACUGUCAAUGUTT against ERAP2 | inactive: 0.081
CAGGAGUGAUUAAACGGUUTT against GNAI3 | inactive: 0.0656
GCACAGAUAUCCUCGUGUATT against ARL11 | active: 1
CAGAUUAUUUGGAUCACAUTT against BRD1 | inactive: 0.0644
CUAUGGACAUGAAAGGCUATT against EPHX2 | inactive: 0
GGAUGAAGAACGAAUGGUATT against ENDOD1 | inactive: -0.138
GUGCUGGAUUUGCACAACATT against LRRC55 | inactive: 0.314
UGUUCUAUGUGAAGAAGGATT against KCNK1 | inactive: 0.124

Sequence | median seed-adjusted z-score
GAAGAAAACAUGUCUGUGATT against HRH3 | inactive: 0.276
GCAUAAAAGUAUCAGACCATT against DDX18 | inactive: 0.241
GGGACUGGGAUUUACGUUATT against MTMR11 | inactive: -0.0244
AGGCAUCCGUGAGACCAUUTT against DHPS | inactive: 0.0662
CCAAGUCUGUGAAAAUCCUTT against TRIM8 | inactive: -0.296
CAUGGGCUCUAUUACGCUUTT against SPEN | active: -1.69
UGCUAUUGAUAAACUUUUUTT against TALDO1 | inactive: 0.131
GCAUUUGGAUGGAUCAUGUTT against CD163 | inactive: 0.021
GGACCUGUUCAGUCUGGAATT against BTNL9 | inactive: 0.0189
CGGUUGAACUUCGAAAUAUTT against NF1 | inactive: -0.36
GCAUGGAGCAGAUCGUGUUTT against ITPR3 | active: -1.28
CGAAGGCCUUGUGAACAGATT against FOSL1 | inactive: -0.431
GGAGAAAGGUAAAACGCAUTT against GPATCH2 | inactive: 0.0828
CCCUGCAAAUUGGACAUGATT against SPINT4 | inactive: 0.354
CGAUAGUGAGUAUAUCAGUTT against ZMYND8 | inactive: -0.065
CGACCGUUCUUUCCCUGCATT against GJC2 | inactive: 0
GGGAGGUACUCAGAAAACATT against CCR6 | inactive: 0.103
AGAUGUUUCAUGUGCAGAATT against ZFAND5 | inactive: 0.0289
CCCUGUUAUGUCAAGCUUATT against SYNPR | inactive: 0.257
GGUAACAUUCGAUCCAGAATT against SLC9A7 | inactive: 0.349
GCAACACGGCGAUGGAGUUTT against ZACN | inactive: 0.065
ACAUGACCAUGGAAGCUGATT against HIPK4 | inactive: 0

Sequence | median seed-adjusted z-score
GUCUUUAAUGCGCACUAUATT against FEZF1 | inactive: 0.155
CGGAGUCGAUGGUUCAGUUTT against ARNTL | inactive: 0.0838
GGAUUUUGGGCACAAGUUUTT against MTMR4 | inactive: -0.735
GGAGAUACUCCGAACCUCATT against TEX13A | active: -1.22
UGUCGUCUGUGAAUGCUAATT against ALDOA | inactive: -0.258
GCAAAGUACUGUGCUAAGATT against ROBO3 | inactive: 0.131
GGUGGAUGGUAAUAAGGAATT against CTPS2 | active: 1.08
GAUGUAUUGUUACUACCAATT against SCNN1G | inactive: -0.616
GCAACAACCUGAUUAAGGATT against MED24 | active: -2.3
GGUGAACACCCUAAAAGAATT against JMJD6 | inactive: 0.314
GCAAUUACAUGGUGGUCUATT against MEGF8 | inactive: 0.0906
GCACCAGUCGAGGUCUAAATT against PEG3 | inactive: 0.5
ACACCUCACUCAUCCUCUUTT against GNAZ | inactive: -0.604
GAGCAUCGAUCUUAACCAUTT against CPXM1 | inactive: 0.147
CCGUGGACCAGUACUUUUATT against MAN2B1 | inactive: -0.246
GGAGAAAGCGGACCACCUUTT against SEBOX | inactive: 0.2
AGGGAAAACUGGAGCAGGATT against APC2 | inactive: 0.00354
CUCAAUCCAUAGUAAGUAUTT against ZNF678 | inactive: 0.172
GGACAGCUAACAUUGCCUATT against LPCAT2 | inactive: 0
GAAGAUUGGUGAUCUAGGATT against WNK3 | inactive: -0.466
